According to PubChem BioAssay AID540256 (National Center for Advancing Translational Sciences (NCATS), 2011):
The whole screen tested about 300,000 compounds, of which about 3,700 (1.2%) were called active. The inconclusive results got no clear call from the source; some entries with a clear call stand among them for comparison. Calls follow the shape of the full dose curve; tested in HEK293 cells. Where the call is inconclusive, the potency comes from a doubtful curve fit.

Test: qHTS for Inhibitors of binding or entry into cells for Lassa Virus; also: nearly all actives have a fitted effect of over 50% in size
Details: Lassa virus pseudotype entry inhibition, cell reporter; activity change, negative = inhibition: at 37.9 µM (top of the series) unless noted
% is scaled to controls: 0 for no effect and ±100 for the full control effect; potency is read from the fitted curve at half-maximal effect.

SMILES | Potency | activity change, negative = inhibition
O=C(Nc1ccc(NC(=O)c2ccccc2Cl)nc1)c1ccco1 | inconclusive: 35.5 µM [inhibitor, single point] | 
COc1cccc(-c2nc(SCC(=O)NC3CCCC3)c(-c3ccc(F)cc3)[nH]2)c1 | inconclusive: 8.91 µM [inhibitor, partial curve, poor fit] | 
N/C(=N\OC(=O)c1ccc(Cl)c(Cl)c1)c1cccnc1 | inconclusive: 12.6 µM [activator, partial curve] | 
Cc1ccc(-c2cn3cccnc3n2)cc1NC(=O)Cc1ccccc1 |  | inactive: 1.67% [at 46.1 µM]
O=S(=O)(c1ccccc1)c1nc(-c2ccccc2)oc1N1CCN(c2cccc(Cl)c2)CC1 |  | inactive: 7.54% [at 46.1 µM]
Nc1c(-c2ccccc2)cnn1-c1cccc([N+](=O)[O-])c1 |  | inactive: 1.07%
COc1ccc([C@H]2C[C@H](n3cc(COC(=O)c4ccccc4)nn3)[C@@H](O)CN2C(=O)C2CCCCC2)cc1 | inconclusive: 0.315 µM [inhibitor, full curve, poor fit] | 
CCc1ccc(NC(=O)N(Cc2cn(CC)c3ccccc23)C2CCCCC2)cc1 | inconclusive: 7.94 µM [inhibitor, partial curve, poor fit] | 
CCOC(=O)C1(CCCc2ccccc2)CCN(C(=O)CSC)CC1 | inconclusive: 35.5 µM [inhibitor, single point] | 
Cc1cc(C)cc(NC(=O)c2ncn(-c3ccccc3)n2)c1 |  | inactive: 24.4% [at 46.1 µM]
O=C(Cc1ccccc1)N1CCC(c2ccccc2)C1 (configuration not stated) |  | inactive: 19.7%
O=[N+]([O-])c1ccc2c(c1)C(=NO)c1cc(F)ccc1-2 |  | inactive: -4.94%
COc1ccc2c(=O)c(C(=O)NCc3ccccc3)c[nH]c2c1 |  | inactive: -2.53% [at 46.1 µM]
CCOC(=O)/C(C#N)=C1/C=C(C)NC(c2ccccc2O)=N1 | inconclusive: 29.1 µM [inhibitor, single point] | 
c1ccc(C2Nc3ccccc3C3OCCCC23)cc1 (configuration not stated) | inconclusive: 15.8 µM [inhibitor, single point] | 
O=C1c2[nH]nc(-c3ccccc3O)c2C(c2ccc(Cl)cc2)N1CCc1ccccc1 (configuration not stated) | inconclusive: 2.51 µM [inhibitor, full curve, poor fit] | 
CCOC(=O)c1c(C)oc2c1c(C(c1ccccc1)N1CCOCC1)c(O)c1ccccc12 (configuration not stated) | active: 23.1 µM | 
CCOc1ccccc1Nc1ncnc2c1c(-c1ccccc1)cn2-c1ccc(OC)cc1 |  | inactive: 7.79% [at 46.1 µM]
CCOCN(C(=O)Cn1c(CC(C)C)nc2ccccc21)c1c(C)cccc1CC |  | inactive: -18.6% [at 46.1 µM]
O=C(COc1ccc(F)c(Cl)c1)c1ccc[nH]1 |  | inactive: 21.1%
COc1cc(/C=N/NC(=O)c2ccc(-n3cccc3)cc2)ccc1O | inconclusive: 7.94 µM [inhibitor, partial curve, poor fit] | 
COc1ccc(-c2nnn(Cc3ccccc3)n2)cc1OC | inconclusive: 10 µM [inhibitor, partial curve, poor fit] | 
Cc1ccc(Cn2cccc(NS(C)(=O)=O)c2=O)cc1 | inconclusive: 7.08 µM [activator, full curve, poor fit] | 

Filtered by structure: the entries above with a furan ring, fused or not.
SMILES | Potency | activity change, negative = inhibition
O=C(Nc1ccc(NC(=O)c2ccccc2Cl)nc1)c1ccco1 | inconclusive: 35.5 µM [inhibitor, single point] | 
CCOC(=O)c1c(C)oc2c1c(C(c1ccccc1)N1CCOCC1)c(O)c1ccccc12 (configuration not stated) | active: 23.1 µM | 

Next part:

SMILES | Potency | activity change, negative = inhibition
O=C(COc1ccc(F)cc1)NC1CC(=O)N(c2ccc3c(c2)OCCO3)C1 (configuration not stated) |  | inactive: 18.1% [at 46.1 µM]
CN1CCN(c2ccc([N+](=O)[O-])cc2Cl)CC1 | inconclusive: 12.6 µM [activator, single point] | 
Cc1ccc2nc(-c3ccncc3)cc(C(=O)N3CCOCC3)c2c1 |  | inactive: 9.86%
CCOC(=O)c1c(C)[nH]c(C)c1S(=O)(=O)N1CCN(c2ccc(Cl)cc2)CC1 |  | inactive: -6.5% [at 46.1 µM]
CC1CC(C)(C)NC(=S)N1CCC(=O)Nc1ccc2c(c1)OCCO2 (configuration not stated) | active: 3.55 µM | 
CC(=O)N1c2ccc(S(=O)(=O)NCC3CCC(C(=O)Nc4ccc(F)cc4)CC3)cc2CC1C (configuration not stated) | inconclusive: 15.8 µM [inhibitor, single point] | 
CCn1cc([N+](=O)[O-])c(C(=O)N2N=C(c3ccc4ccccc4c3)CC2c2cc(Br)ccc2O)n1 (configuration not stated) | inconclusive: 12.6 µM [inhibitor, single point] | 
CSc1ccc(/C=N/N(C)S(=O)(=O)c2ccc(C)cc2)cc1 | inconclusive: 39.8 µM [inhibitor, partial curve, poor fit] | 
CC1=C(C(=O)OCC2CCCO2)C(c2coc3ccc(C)cc3c2=O)C2=C(CCCC2=O)N1 (configuration not stated) | inconclusive: 1.26 µM [inhibitor, single point] | 
Cc1cc(C)cc(NC(=O)CN2C(=O)CCc3cc(S(=O)(=O)N4CCCCC4)ccc32)c1 |  | inactive: 0.678% [at 46.1 µM]
Cc1nn2c(=O)cc(COC(=O)c3ccc(NC(=O)c4cccs4)cc3)nc2s1 |  | inactive: 12.7% [at 46.1 µM]
CCOC(=O)c1c(NC(=O)C(C)Oc2ccc(Cl)c(C)c2)sc2c1CCCC2 (configuration not stated) | inconclusive: 35.5 µM [activator, single point] | 
CNc1ncnc(Sc2nc(N)nc3nc[nH]c23)c1[N+](=O)[O-] | active: 2.51 µM | 
O=C(Nc1ccc(N2CCOCC2)c(Cl)c1)c1ccc(Br)o1 | inconclusive: 25.1 µM [inhibitor, single point] | 
Cc1c(C#N)c(O)[nH]c(=O)c1N=Nc1ccc(Br)cc1C(=O)O |  | inactive: 1.54%
CCOC(=O)c1c(-c2ccccc2Cl)csc1NC(=O)c1cc(S(=O)(=O)N2CCOCC2)ccc1C | inconclusive: 18.4 µM [inhibitor, partial curve, poor fit] | 
CCOc1cc(C(=O)NC(=S)Nc2cccnc2)cc(OCC)c1OCC |  | inactive: -23.3%
Cc1cc(C)cc(N(CC(=O)NCc2ccc(F)cc2)C(=O)c2snc(C(N)=O)c2N)c1 | inconclusive: 11.2 µM [inhibitor, partial curve, poor fit] | 
CCc1cccc(C)c1N(C(=O)Cn1c(COC)nc2ccccc21)C(C)COC (configuration not stated) | inconclusive: 6.51 µM [inhibitor, full curve] | 
O=C(NCCc1ccccc1)c1ccc2c(c1)CCN2S(=O)(=O)c1ccccc1 | inconclusive: 35.5 µM [inhibitor, single point] | 
CCN(C(=O)Cn1nc(Cc2ccncc2)c2ccccc2c1=O)c1cccc(C(F)(F)F)c1 |  | inactive: 8.35% [at 46.1 µM]
COc1ccc(C(c2c(O)nc(SC)n(C)c2=O)c2c(O)nc(SC)n(C)c2=O)cc1O |  | inactive: 1.82%
Cc1cc(C(=O)NNC(=O)Nc2ccccc2)no1 | inconclusive: 3.16 µM [inhibitor, single point] | 

Structures shown so far that have bromine:
SMILES | Potency | activity change, negative = inhibition
CCn1cc([N+](=O)[O-])c(C(=O)N2N=C(c3ccc4ccccc4c3)CC2c2cc(Br)ccc2O)n1 (configuration not stated) | inconclusive: 12.6 µM [inhibitor, single point] | 
O=C(Nc1ccc(N2CCOCC2)c(Cl)c1)c1ccc(Br)o1 | inconclusive: 25.1 µM [inhibitor, single point] | 
Cc1c(C#N)c(O)[nH]c(=O)c1N=Nc1ccc(Br)cc1C(=O)O |  | inactive: 1.54%

The list goes on.

SMILES | Potency | activity change, negative = inhibition
Cc1cccc(NC(=O)c2cc(Cl)nc3ccccc23)c1 | inconclusive: 0.794 µM [inhibitor, single point] | 
CCOc1ccc(CNC(=O)C2CCCN(S(=O)(=O)N(CC)c3ccc(OCC)cc3)C2)cc1 (configuration not stated) | inconclusive: 2.24 µM [inhibitor, partial curve, poor fit] | 
COc1ccc(-n2ncc(C(=O)Nc3ccc4c(c3)OCCO4)c2C2CCN(C(=O)OC(C)(C)C)CC2)cc1 | inconclusive: 10 µM [inhibitor, partial curve, poor fit] | 
Cc1ccc(-c2nc(NCCCO)c3ccccc3n2)cc1 | inconclusive: 1.58 µM [activator, full curve, poor fit] | 
CC1CC2(CC(C)(C(=O)CSc3n[nH]c(-c4ccccc4Cl)n3)OC2=O)C(=O)O1 (configuration not stated) | inconclusive: 32.6 µM [inhibitor, single point] | 
COc1ccc(CCNC(=O)c2c(C)nn(-c3ccc(F)cc3)c2-n2cccc2)c(OC)c1OC | inconclusive: 10 µM [inhibitor, partial curve] | 
Cc1ccc(Nc2sc(C(=O)c3ccccc3)c(N)c2S(=O)(=O)c2ccccc2)c(C)c1 | inconclusive: 7.08 µM [inhibitor, full curve, poor fit] | 
COc1ccc(-c2cc(C(=O)N3CCOCC3)no2)cc1 | inconclusive: 11.2 µM [inhibitor, partial curve, poor fit] | 
CCOC(=O)Cc1csc(NC(=O)COc2ccc3c(c2)CCC3)n1 | inconclusive: 7.08 µM [inhibitor, full curve] | 
CCOc1ccc(C(=O)Nc2ccc(-c3nc4ccccc4s3)c(C)c2)cc1OCC |  | inconclusive: 8.35% [activator] [at 46.1 µM]
Cc1cc2nc(-c3cccc(NC(=O)c4ccc(Br)o4)c3C)oc2cc1C |  | inactive: 1.58%
CCc1cc(C(c2ccncc2)N2CCN(C)CC2)c(NC(=O)c2ccccc2)s1 (configuration not stated) |  | inactive: 19.4%
COc1cc(/C=C2\SC(=S)N(CC(=O)Nc3ccccn3)C2=O)cc(OC)c1OC | inconclusive: 35.5 µM [inhibitor, single point] | 
Cc1ccc(S(=O)(=O)N2CCCCC2CCNC(=O)C(=O)NCc2ccccc2C)cc1 (configuration not stated) | inconclusive: 35.5 µM [inhibitor, single point] | 
COc1ccc2[nH]cc(CCNC(=O)c3cnn(-c4ccccc4Cl)c3C3CCN(C(=O)OC(C)(C)C)CC3)c2c1 | inconclusive: 10 µM [inhibitor, partial curve, poor fit] | 
Cc1ccc(C(=O)O/N=C(\N)c2ccccn2)cc1C | inconclusive: 1.12 µM [inhibitor, full curve, poor fit] | 
COc1ccc2[nH]c3nc(SCc4nnc(-c5ccccc5)o4)nnc3c2c1 | inconclusive: 5.8 µM [inhibitor, partial curve, poor fit] | 
O=C(CC1SC(=Nc2ccccc2F)N(CCN2CCOCC2)C1=O)Nc1ccc(F)cc1F (configuration not stated) | active: 11.2 µM | 
CCN(c1cc(C)cc(C)c1)S(=O)(=O)c1nnc(NC(=O)c2ccco2)s1 |  | inactive: -10.4% [at 46.1 µM]
Cc1cc(OCC(=O)N2CCCC2)ccc1Cl | inconclusive: 16.4 µM [activator, partial curve, poor fit] | 
COc1cc(C=O)ccc1OCCCOc1ccccc1C(=O)O | inconclusive: 5.62 µM [inhibitor, partial curve, poor fit] | 
